Source: the supplement of paper PMC12823440, “Inhibitors supercharge kinase turnover through native proteolytic circuits” (Nature, 2025)
Where a name gives a salt, the structure may show the parent alone. The list shows a part of the results. Hit calls seldom repeat between salt and free forms of one compound.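 Kinases, fused to nanoluciferase, were expressed in K562 cells; luminescence was measured every 4 h from 2 to 18 h as percent of control (DMSO = 100%, positive control = 0%). A time point is decreased if signal falls significantly (2 sigma). Hits were called by the authors by a rule that is not shown; the count of time points alone does not decide it.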

Chains of the proteins cited; added tags and fusions are not shown. Lines headed by an entry give the natural chain unless they say otherwise; changes in a name come on top.
UniProt Q9UQM7, whole entry: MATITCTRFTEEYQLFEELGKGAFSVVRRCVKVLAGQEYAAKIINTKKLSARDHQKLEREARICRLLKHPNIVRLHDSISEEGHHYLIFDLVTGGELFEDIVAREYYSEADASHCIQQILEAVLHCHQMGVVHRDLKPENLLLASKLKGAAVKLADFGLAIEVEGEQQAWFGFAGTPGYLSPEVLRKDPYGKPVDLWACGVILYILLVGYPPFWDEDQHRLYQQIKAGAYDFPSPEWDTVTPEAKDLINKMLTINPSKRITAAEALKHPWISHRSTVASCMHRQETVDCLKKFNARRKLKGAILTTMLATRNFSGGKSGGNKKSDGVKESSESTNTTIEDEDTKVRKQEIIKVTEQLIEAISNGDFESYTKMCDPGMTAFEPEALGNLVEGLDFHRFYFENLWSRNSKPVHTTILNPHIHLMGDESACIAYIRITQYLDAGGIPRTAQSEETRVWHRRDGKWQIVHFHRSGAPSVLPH
UniProt Q13555: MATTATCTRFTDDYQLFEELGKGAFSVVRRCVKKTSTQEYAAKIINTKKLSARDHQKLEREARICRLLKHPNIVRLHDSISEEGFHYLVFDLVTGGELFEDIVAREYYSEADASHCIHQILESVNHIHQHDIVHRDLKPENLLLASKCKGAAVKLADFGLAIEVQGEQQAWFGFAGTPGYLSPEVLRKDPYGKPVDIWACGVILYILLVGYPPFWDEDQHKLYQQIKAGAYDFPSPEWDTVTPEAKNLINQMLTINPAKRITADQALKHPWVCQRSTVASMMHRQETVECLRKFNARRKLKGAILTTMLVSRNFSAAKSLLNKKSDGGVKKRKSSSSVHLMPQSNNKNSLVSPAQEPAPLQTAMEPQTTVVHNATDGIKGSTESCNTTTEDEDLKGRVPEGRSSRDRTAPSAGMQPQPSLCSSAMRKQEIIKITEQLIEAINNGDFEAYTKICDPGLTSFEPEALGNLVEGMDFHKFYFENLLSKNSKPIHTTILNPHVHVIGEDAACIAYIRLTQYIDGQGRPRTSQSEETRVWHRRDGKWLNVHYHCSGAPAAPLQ
UniProt Q15131: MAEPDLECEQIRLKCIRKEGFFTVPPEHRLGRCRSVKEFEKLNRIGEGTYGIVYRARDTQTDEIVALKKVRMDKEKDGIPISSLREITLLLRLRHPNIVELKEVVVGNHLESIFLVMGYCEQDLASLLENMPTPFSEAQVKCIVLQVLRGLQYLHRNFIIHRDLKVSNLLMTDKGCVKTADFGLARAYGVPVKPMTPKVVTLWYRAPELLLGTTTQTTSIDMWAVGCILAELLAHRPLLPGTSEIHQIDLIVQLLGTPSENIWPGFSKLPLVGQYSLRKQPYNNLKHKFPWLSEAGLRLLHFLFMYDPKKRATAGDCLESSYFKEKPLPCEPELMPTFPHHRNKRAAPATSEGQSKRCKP
UniProt Q00526: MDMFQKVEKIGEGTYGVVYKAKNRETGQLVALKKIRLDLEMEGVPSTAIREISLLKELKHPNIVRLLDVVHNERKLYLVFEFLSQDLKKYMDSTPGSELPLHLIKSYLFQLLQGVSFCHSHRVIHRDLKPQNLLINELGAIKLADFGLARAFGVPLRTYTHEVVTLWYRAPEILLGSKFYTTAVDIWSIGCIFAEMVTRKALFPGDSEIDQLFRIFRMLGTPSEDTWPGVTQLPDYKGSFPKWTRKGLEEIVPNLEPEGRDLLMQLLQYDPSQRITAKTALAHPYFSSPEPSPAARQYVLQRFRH
UniProt Q00535, whole entry, looked up: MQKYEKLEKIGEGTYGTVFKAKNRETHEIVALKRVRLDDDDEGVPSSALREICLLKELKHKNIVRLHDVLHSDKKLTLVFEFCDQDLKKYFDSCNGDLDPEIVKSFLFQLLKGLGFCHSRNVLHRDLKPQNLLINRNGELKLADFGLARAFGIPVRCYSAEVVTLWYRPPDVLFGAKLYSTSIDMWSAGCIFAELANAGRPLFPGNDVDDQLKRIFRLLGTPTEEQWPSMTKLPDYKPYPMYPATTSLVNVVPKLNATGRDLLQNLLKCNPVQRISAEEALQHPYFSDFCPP
UniProt Q00534, whole entry: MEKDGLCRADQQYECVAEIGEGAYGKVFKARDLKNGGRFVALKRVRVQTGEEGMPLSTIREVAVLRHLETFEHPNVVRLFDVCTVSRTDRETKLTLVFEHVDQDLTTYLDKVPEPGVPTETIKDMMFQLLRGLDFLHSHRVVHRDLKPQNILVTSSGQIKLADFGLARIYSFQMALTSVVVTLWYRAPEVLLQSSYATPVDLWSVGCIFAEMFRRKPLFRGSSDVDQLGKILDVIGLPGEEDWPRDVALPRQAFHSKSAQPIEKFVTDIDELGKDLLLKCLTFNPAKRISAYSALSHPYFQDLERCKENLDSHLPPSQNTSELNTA
UniProt O96017, whole entry: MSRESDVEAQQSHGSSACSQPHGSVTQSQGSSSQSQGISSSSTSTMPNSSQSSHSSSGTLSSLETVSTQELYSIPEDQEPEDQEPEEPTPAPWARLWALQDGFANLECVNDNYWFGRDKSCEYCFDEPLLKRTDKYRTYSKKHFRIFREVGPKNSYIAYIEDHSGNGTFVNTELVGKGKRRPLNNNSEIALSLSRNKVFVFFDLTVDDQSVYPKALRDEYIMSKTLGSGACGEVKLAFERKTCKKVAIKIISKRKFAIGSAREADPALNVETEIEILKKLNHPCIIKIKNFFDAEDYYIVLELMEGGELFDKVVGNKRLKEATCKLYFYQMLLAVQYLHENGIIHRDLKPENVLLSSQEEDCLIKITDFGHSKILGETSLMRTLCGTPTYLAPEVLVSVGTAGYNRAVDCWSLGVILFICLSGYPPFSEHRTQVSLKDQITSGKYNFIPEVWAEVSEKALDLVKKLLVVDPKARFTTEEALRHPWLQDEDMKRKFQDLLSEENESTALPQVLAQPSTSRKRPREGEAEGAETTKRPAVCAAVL
UniProt P07333, whole entry: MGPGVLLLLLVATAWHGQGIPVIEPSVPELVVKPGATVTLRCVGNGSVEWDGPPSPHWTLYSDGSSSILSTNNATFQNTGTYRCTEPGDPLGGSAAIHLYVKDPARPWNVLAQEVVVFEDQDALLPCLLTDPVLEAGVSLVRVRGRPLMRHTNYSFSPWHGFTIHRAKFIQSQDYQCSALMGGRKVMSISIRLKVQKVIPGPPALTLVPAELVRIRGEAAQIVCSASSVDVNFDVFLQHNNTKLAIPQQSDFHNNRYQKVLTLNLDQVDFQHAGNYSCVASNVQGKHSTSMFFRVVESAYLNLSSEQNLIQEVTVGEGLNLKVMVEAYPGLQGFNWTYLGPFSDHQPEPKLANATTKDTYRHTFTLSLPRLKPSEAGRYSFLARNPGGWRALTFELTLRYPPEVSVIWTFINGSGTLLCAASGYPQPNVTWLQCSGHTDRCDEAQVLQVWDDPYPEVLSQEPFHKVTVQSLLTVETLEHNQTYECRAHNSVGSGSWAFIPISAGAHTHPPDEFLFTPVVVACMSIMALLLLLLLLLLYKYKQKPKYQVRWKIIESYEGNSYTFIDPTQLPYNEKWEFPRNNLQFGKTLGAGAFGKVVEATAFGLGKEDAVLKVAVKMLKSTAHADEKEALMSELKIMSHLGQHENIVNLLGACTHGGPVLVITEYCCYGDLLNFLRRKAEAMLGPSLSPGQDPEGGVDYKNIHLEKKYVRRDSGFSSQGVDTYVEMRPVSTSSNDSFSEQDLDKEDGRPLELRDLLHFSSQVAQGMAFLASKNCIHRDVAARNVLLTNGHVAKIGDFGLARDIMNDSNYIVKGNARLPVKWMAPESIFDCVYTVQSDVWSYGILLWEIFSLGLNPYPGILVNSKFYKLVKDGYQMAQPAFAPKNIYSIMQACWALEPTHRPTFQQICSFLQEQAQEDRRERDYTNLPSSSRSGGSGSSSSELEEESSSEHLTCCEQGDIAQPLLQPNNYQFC
UniProt P41240: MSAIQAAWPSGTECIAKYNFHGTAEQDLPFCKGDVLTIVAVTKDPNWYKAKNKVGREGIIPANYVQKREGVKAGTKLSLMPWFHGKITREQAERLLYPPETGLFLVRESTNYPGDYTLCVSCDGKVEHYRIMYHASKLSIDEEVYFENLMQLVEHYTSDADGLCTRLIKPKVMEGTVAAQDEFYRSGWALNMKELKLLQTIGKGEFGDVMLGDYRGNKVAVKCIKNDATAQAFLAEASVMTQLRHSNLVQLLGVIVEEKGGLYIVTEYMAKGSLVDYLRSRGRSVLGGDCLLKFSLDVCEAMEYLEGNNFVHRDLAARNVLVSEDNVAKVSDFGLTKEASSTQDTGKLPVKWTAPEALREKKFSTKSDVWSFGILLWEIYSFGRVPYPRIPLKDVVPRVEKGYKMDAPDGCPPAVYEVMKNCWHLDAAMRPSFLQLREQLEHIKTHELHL

Columns and labels:
Assay in all cases: number of time points (of 5) at which kinase-Nluc abundance scored as decreased, DMSO-normalised (count); higher = more persistent destabilization
Conditions in all cases: K562; 2-18 h
[1] = target: CAMK2A (UniProt Q9UQM7)
[2] = target: CAMK2G (UniProt Q13555)
[3] = target: CDK10 (UniProt Q15131)
[4] = target: CDK2 (UniProt P24941)
[5] = target: CDK3 (UniProt Q00526)
[6] = target: CDK5 (UniProt Q00535)
[7] = target: CDK6 (UniProt Q00534)
[8] = target: CHEK2 (UniProt O96017)
[9] = target: CSF1R (UniProt P07333)
[10] = target: CSK (UniProt P41240)

Measured: number of time points

CN1C(=O)NC(Cc2c[nH]c3c(Cl)cccc23)C1=O (racemic) [Necrostatin 2 (racemate)] (10 µM)
0: all assays above

O=C(O)c1ccc(N2N=C(Cc3ccccc3)C(=Cc3ccc(-c4ccccc4F)o3)C2=O)cc1 (10 µM)
0: all assays above

C[C@H]1Cc2ccccc2N1C(=O)Cc1nc(N2CCOCC2)cc(=O)[nH]1 (2.5 µM)
0: all assays above

CNC(=O)c1ccc(-c2cnc3cnc(-c4ccccc4)cn23)cc1 (10 µM)
0: all assays above

Cc1cc2cc(Oc3ccnc(Nc4cccc(CS(=O)(=O)NCCN(C)C)c4)n3)ccc2[nH]1 [Sulfatinib] (10 µM)
0: all assays above

CN(C)Cc1cccc(N=C(c2ccccc2)c2c(O)[nH]c3cc(C(N)=O)ccc23)c1 (10 µM)
0: all assays above

CCN(C)C(=O)c1ccc2c(C(=Nc3ccc(CN4CCCCC4)cc3)c3ccccc3)c(O)[nH]c2c1 (2.5 µM)
0: all assays above

O=C(CO)N1CCC(c2n[nH]c(-c3ccc(Cl)cc3)c2-c2ccncn2)CC1 (10 µM)
0: all assays above

O=C1NCCCc2c1oc1ccc(O)cc21 (10 µM)
0: all assays above

CCCCNC(=N)NC(=N)N [Buformin (hydrochloride)] (2.5 µM)
0: all assays above

C[C@@H]1O[C@@H](OC[C@H]2O[C@@H](Oc3cc(O)c4c(c3)O[C@H](c3ccc(O)cc3)CC4=O)[C@H](O)[C@@H](O)[C@@H]2O)[C@H](O)[C@H](O)[C@H]1O [Narirutin] (10 µM)
0: all assays above

CCCCOc1ccc(CC/C=C2\SC(=O)N(CCN)C2=O)cc1 [K145 (hydrochloride)] (2.5 µM)
0: all assays above

CCc1c(C)sc(NC(=S)NC(=O)c2ccc(Cl)cc2)c1C(N)=O (10 µM)
0: all assays above

O=C(Nc1ccc(Cl)cc1)C1CCCN(C(=O)c2cccc(-c3ccco3)c2)C1 (stereo not given) (2.5 µM)
0: all assays above

Cc1cccc(-c2[nH]ncc2-c2ccc3ncccc3n2)n1 (10 µM)
0: all assays above

COC1(C(=O)N[C@@H](C)c2ccc(-n3cc(F)cn3)nc2)CCC(c2nc(C)cc(Nc3cc(C)[nH]n3)n2)CC1 (stereo partly drawn) [trans-Pralsetinib] (2.5 µM)
0: all assays above

CC(=O)Nc1nc(C)c(-c2nc(N3CCCC(O)C3)no2)s1 (stereo not given) (10 µM)
0: all assays above

Cc1cnc(Nc2ccc(N3CCN(C)CC3)cc2)nc1Nc1cccc(S(=O)(=O)NC(C)(C)C)c1 (2.5 µM)
0: all assays above

O=C1NC(=O)/C(=C/c2ccc(-c3ccc(F)cc3O)o2)S1 (10 µM)
0: all assays above

C[C@H]1[C@H](OC(=O)CCC(=O)O)O[C@@H]2O[C@@]3(C)CC[C@H]4[C@H](C)CC[C@@H]1[C@@]24OO3 [Artesunate] (2.5 µM)
1: [3] | [8] | [9]
0: all other assays above

Cc1nc(NC(=O)NCCc2nnn(CCF)n2)sc1-c1ccc(S(C)(=O)=O)c(F)c1 (10 µM)
0: all assays above

N#Cc1ccc(-c2c(-c3ncn[nH]3)sc(N3CCOCC3)c2C#N)c(F)c1 (10 µM)
0: all assays above

Ordered by heavy-atom count (low to high): part of the list above.
O=C1NC(=O)/C(=C/c2ccc(-c3ccc(F)cc3O)o2)S1 (10 µM)
0: all assays above

Cc1cccc(-c2[nH]ncc2-c2ccc3ncccc3n2)n1 (10 µM)
0: all assays above

CCc1c(C)sc(NC(=S)NC(=O)c2ccc(Cl)cc2)c1C(N)=O (10 µM)
0: all assays above

N#Cc1ccc(-c2c(-c3ncn[nH]3)sc(N3CCOCC3)c2C#N)c(F)c1 (10 µM)
0: all assays above

O=C(Nc1ccc(Cl)cc1)C1CCCN(C(=O)c2cccc(-c3ccco3)c2)C1 (stereo not given) (2.5 µM)
0: all assays above

Cc1nc(NC(=O)NCCc2nnn(CCF)n2)sc1-c1ccc(S(C)(=O)=O)c(F)c1 (10 µM)
0: all assays above

Cc1cnc(Nc2ccc(N3CCN(C)CC3)cc2)nc1Nc1cccc(S(=O)(=O)NC(C)(C)C)c1 (2.5 µM)
0: all assays above

COC1(C(=O)N[C@@H](C)c2ccc(-n3cc(F)cn3)nc2)CCC(c2nc(C)cc(Nc3cc(C)[nH]n3)n2)CC1 (stereo partly drawn) [trans-Pralsetinib] (2.5 µM)
0: all assays above

Continued.

O=[N+]([O-])c1ccc(Sc2cccc[n+]2[O-])c2nonc12 (2.5 µM)
0: all assays above

CC(CCc1ccccn1)(CCc1ccccn1)C(=O)c1ccccc1 (10 µM)
0: all assays above

O=C(c1ccc(Nc2nccc(-c3cc4ccccc4s3)n2)cc1)N1CCC(N2CCCC2)CC1 (2.5 µM)
0: all assays above

COc1cc(N2CCC(O)CC2)ccc1Nc1cc(Nc2ccccc2S(=O)(=O)C(C)C)c2cc[nH]c2n1 (10 µM)
0: all assays above

CC(C)(C)C(=O)N1N=CC[C@H]1c1ccccc1 (10 µM)
0: all assays above

C[C@@H]1COCCN1c1cc(=O)n2c(n1)N(Cc1cncc(Cl)c1)[C@H](C(F)(F)F)CC2 (10 µM)
1: [8]
0: all other assays above

C[C@@H]1CCc2ncc(F)cc2[C@H]2CCCN2c2ccn3ncc(c3n2)C(=O)N1 [Selitrectinib] (10 µM)
0: all assays above

CN(C)c1nc2c(Br)c(Br)c(Br)c(Br)c2n1CC(=O)O (10 µM)
1: [4]
0: all other assays above

Oc1ccccc1C(=S)N1CCCC1 (10 µM)
0: all assays above

CN1CC[C@H](c2c(O)cc(O)c3c(=O)cc(-c4ccc(C(F)(F)F)cc4Cl)oc23)[C@H]1CO [(2S,3R)-Voruciclib (hydrochloride)] (2.5 µM)
0: all assays above

COc1ccc2c(c1)c(C1=C(c3c[nH]c4ccccc34)C(=O)NC1=O)cn2CCCN(C)C (10 µM)
0: all assays above

Cn1cc(-c2ccc(F)c(C(F)(F)F)c2)nc1C1CCN(c2ncnc3[nH]ncc23)CC1 (10 µM)
0: all assays above
